No constants are given. Whether binding was seen depends on the method and setting. In cells and extracts the contact can be indirect. A yes stands for co-enrichment or nearness to the bait. Other partners may have been found.
Assays:
[1] = target: Flag-tagged BPLF1 1-246 (Epstein-Barr virus) (UniProt P03186); assay: affinity purification with mass spectrometry
[2] = target: full-length BPLF1 construct (BPLF1 FL), FLAG-tagged (Epstein-Barr virus (B95-8)) (UniProt P03186); assay: affinity purification with mass spectrometry

Protein sequences, listed by entry. Tags and fused reporters are not part of them. Lines headed by an entry give the natural chain unless they say otherwise; changes in a name come on top. Chains listed by the source or under a name are the forms on record and can include a tag or linker. Residues count along the entry.
UniProt P03186: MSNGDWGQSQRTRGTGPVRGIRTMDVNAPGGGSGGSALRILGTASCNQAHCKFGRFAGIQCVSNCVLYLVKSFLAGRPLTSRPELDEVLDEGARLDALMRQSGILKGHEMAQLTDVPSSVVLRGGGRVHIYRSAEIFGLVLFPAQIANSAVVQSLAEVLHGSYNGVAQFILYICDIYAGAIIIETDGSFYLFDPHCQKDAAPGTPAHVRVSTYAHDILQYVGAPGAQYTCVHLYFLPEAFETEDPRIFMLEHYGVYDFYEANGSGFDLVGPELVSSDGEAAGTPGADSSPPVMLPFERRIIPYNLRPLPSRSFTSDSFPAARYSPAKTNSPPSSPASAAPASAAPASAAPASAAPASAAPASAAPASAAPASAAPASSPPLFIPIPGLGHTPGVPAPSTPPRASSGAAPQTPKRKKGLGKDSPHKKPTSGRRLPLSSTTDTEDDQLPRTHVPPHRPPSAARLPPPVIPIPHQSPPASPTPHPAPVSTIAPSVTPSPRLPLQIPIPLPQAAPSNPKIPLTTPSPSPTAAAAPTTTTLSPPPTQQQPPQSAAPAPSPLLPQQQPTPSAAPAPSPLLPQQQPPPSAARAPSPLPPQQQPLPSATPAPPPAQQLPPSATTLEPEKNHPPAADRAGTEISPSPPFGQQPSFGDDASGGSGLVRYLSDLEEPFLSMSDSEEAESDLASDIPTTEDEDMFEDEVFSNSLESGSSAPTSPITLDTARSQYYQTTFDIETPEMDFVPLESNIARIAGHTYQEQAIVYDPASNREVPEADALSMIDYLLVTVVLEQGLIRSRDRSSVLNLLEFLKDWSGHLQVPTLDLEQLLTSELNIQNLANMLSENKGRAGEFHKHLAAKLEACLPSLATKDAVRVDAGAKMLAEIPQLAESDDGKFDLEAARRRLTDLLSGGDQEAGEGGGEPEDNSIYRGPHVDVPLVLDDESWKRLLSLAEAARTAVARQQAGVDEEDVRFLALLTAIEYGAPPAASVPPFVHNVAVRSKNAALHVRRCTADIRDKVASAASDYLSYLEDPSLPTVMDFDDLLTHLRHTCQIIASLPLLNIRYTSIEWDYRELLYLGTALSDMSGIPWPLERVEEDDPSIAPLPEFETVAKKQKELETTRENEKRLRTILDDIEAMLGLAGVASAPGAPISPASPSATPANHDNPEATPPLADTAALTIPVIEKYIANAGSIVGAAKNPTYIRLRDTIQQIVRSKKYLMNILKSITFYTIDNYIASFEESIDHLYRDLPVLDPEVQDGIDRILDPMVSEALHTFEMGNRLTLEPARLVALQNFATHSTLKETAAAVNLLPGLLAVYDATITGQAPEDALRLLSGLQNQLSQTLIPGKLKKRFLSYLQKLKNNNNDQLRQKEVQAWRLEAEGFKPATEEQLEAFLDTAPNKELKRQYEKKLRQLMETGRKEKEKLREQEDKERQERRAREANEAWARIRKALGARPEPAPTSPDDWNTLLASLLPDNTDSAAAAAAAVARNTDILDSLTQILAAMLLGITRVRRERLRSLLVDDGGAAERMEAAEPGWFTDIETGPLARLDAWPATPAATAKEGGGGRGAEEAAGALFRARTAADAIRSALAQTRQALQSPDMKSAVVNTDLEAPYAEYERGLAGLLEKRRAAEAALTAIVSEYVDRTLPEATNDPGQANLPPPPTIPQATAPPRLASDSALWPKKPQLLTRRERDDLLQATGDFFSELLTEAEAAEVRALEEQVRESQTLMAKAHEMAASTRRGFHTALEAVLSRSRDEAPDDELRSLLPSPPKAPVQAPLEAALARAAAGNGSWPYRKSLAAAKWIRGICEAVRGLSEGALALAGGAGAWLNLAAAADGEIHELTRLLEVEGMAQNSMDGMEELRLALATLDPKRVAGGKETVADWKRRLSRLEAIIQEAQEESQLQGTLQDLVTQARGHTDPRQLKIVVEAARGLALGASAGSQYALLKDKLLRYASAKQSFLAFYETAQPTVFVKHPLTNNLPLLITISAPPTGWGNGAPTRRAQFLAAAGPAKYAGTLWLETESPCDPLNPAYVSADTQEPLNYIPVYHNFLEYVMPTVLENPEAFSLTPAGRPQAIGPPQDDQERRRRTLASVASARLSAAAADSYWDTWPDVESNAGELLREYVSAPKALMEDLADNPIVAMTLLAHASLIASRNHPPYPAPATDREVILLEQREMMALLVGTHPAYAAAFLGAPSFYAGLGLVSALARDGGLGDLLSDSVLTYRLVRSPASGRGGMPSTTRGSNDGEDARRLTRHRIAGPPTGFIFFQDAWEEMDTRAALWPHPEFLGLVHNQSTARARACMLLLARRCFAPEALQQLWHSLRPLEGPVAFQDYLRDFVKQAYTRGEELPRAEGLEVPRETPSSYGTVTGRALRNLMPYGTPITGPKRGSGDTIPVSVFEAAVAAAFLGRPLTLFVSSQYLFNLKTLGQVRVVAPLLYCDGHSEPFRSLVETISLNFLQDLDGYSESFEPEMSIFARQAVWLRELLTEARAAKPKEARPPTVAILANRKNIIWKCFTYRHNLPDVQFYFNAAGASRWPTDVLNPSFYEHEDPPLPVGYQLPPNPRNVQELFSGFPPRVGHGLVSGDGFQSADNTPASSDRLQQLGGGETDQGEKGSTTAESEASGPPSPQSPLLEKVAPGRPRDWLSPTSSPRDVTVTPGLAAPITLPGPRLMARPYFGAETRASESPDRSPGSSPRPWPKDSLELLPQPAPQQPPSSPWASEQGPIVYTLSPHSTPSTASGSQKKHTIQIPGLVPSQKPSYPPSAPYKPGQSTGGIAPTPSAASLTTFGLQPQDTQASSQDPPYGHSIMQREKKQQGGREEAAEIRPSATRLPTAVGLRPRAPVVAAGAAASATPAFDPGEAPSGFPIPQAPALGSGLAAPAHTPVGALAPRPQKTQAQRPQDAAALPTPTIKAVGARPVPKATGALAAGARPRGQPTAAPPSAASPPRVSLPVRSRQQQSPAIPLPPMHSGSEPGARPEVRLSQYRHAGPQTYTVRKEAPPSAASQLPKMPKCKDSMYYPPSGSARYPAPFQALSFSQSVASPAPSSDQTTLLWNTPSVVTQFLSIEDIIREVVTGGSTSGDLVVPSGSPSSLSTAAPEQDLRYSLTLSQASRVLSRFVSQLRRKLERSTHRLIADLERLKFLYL
Flag-tagged BPLF1 1-246: residues 1-246 of P03186
UniProt Q04637: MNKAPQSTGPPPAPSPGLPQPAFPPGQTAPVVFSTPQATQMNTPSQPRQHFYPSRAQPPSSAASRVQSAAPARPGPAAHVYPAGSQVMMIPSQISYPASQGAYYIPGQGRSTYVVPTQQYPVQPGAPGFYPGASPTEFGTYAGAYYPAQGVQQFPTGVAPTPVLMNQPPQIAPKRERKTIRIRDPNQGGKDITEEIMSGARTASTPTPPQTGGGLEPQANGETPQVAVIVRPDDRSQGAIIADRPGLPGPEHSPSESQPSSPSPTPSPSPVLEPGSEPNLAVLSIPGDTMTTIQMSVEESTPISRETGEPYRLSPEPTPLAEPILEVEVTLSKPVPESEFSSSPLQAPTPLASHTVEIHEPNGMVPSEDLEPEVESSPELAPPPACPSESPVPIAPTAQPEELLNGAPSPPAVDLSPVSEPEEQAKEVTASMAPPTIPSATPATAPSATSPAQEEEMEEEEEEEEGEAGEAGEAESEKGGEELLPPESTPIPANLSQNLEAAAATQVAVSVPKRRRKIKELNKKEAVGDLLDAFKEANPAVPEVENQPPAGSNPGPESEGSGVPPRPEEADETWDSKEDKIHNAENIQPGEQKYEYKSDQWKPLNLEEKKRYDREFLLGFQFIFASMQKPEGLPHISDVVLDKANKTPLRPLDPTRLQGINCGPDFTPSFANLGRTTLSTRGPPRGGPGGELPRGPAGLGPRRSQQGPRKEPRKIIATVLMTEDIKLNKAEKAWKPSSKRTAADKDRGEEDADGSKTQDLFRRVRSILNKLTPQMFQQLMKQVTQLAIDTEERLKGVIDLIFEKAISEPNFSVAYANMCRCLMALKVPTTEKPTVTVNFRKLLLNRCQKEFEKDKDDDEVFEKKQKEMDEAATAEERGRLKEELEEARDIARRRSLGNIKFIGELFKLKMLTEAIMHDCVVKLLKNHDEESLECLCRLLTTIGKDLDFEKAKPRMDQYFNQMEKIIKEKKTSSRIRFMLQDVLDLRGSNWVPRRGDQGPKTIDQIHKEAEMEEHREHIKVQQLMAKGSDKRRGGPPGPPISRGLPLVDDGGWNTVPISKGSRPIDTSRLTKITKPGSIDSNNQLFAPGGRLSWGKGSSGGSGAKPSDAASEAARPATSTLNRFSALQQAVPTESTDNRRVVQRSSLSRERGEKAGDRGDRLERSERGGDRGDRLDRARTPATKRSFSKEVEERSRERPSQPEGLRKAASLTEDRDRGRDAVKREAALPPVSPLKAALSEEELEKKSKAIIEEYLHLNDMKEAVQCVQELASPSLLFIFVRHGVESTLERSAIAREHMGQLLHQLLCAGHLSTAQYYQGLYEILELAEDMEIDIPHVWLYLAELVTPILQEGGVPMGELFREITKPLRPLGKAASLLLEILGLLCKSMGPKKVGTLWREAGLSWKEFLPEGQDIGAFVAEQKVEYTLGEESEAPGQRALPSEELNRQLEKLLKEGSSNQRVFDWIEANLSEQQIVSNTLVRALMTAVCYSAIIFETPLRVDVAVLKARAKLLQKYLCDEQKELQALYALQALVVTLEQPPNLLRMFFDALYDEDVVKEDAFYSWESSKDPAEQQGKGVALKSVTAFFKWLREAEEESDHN
UniProt P54619: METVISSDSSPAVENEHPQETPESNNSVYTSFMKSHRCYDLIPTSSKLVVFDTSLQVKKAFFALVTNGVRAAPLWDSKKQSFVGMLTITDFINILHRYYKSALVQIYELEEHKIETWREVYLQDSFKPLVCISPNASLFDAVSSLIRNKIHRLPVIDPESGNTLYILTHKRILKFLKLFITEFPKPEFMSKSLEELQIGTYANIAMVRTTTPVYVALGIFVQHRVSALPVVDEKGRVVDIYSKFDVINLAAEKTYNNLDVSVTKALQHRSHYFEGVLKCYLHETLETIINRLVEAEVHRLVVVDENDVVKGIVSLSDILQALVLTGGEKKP
UniProt Q9Y4R8: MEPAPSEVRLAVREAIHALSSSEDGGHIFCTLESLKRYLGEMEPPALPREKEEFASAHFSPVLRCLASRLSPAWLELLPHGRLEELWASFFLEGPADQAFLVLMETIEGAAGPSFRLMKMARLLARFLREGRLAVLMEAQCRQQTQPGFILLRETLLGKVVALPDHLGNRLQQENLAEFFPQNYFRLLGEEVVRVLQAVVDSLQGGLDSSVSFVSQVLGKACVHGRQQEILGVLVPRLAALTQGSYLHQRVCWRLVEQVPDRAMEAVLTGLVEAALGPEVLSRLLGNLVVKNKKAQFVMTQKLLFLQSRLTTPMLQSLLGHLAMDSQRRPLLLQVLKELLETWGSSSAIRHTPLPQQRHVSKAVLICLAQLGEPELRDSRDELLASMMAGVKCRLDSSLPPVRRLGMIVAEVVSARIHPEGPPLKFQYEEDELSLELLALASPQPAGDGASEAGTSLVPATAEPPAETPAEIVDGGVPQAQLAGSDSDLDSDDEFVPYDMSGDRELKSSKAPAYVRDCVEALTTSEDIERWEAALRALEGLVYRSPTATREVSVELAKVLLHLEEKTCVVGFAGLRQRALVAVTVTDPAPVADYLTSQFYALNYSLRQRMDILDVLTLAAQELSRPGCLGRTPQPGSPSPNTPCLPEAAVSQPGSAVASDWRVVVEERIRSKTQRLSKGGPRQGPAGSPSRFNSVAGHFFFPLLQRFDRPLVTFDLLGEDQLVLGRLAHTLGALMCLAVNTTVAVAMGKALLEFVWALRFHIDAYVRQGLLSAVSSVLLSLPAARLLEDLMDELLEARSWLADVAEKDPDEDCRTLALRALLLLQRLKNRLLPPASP

Substance	binding [1]	binding [2]
Raptor (regulatory-associated protein of mTOR) (from UniProt Q8N122 1-1335)	binds	binds
TTI1 (Telo2-interacting protein 1) (from UniProt O43156 1-1089)	binds	binds
USP9X (from UniProt Q93008 1-2554)	binds	binds
EIF4G1 (from UniProt Q04637 1-1599)	binds	binds
SMG1 (serine/threonine-protein kinase SMG1) (from UniProt Q96Q15 1-3661)	binds	–
PRKAG1 (from UniProt P54619 1-331)	binds	–
Tel2 (Telomere Maintenance 2) (from UniProt Q9Y4R8 1-837)	binds	binds
